Laboratory results taken from publication PMC3364953.
These are yes or no findings as the source states them, for the method shown. In cells and extracts the contact can be indirect.

Biological target: H3-HA3 (A111C) (budding yeast) (UniProt P61830)
Test: cross-linking; ex vivo cysteine cross-linking in crude yeast lysate or on isolated chromatin pellet; DTNB (also bBBr, BMOE) for 1 hour on ice in 25 mM sodium phosphate pH 7.0, 100 mM KCl, 2.5 mM MgCl2, 0.25% TritonX-100; SDS-PAGE without reducing agent, Western blot with anti-HA (H3) or anti-Myc (Cse4)

Row | Substance | binding
1 | Cse4-Myc3 (L204C) (from UniProt P36012 1-229) | no binding
2 | Cse4-Myc6 (L204C) (from UniProt P36012 1-229) | no binding
